Test [1] addresses ATP1A3 of normal astrocytes (UniProt P13637). Kind of test: co-IP; extracts of normal astrocytes; immunoprecipitation and immunoblotting (Figure 3C, left panel).
The target of test [2] is aquaporin-4 (AQP4) (human (endogenous in U87)) (UniProt P55087). The experiment in a line: co-IP; U87 cell extracts (400 ug), precleared with normal rabbit IgG and protein A/G-agarose; IP with mouse anti-ATP1A3 at 4 C for 5-6 h, blot with anti-ATP1A3 and anti-AQP4; reciprocal IP of AQP4 with blot for ATP1A3.
Test [3] addresses ATP1A3 (Na+/K+-ATPase alpha 3 subunit) (human (endogenous in U87)) (UniProt P13637). Described as above.

Results are given in words; binding and its absence hold for the method and conditions named. Binding seen in cells or lysates may run through a third protein. Some entries that bind do so weakly or less than the wild type.

The record followed here is publication PMC6985666.

For the substance “AQP4 of normal astrocytes (from UniProt P55087 1-323)”, the binding entry in test [1] was “binds”.

Take “ATP1A3 (Na+/K+-ATPase alpha 3 subunit) (from UniProt P13637 1-1013)”: the binding entry in test [2] was “binds”.

“aquaporin-4 (AQP4) (from UniProt P55087 1-323)”: the binding result in test [3] is “binds”.
